No constants are given. Whether binding was seen depends on the method and setting. In cells and extracts the contact can be indirect. Some entries that bind do so weakly or less than the wild type. For some of these results: Sequences can lack the tags named with a protein.
Columns and labels:
[1] = target: V5-tagged full-length Ten-m (tenascin-major, isoform B) (Drosophila melanogaster) (UniProt O61307); experiment: co-IP; co-transfected S2 cells, 72 h; lysis in 50 mM Tris-HCl pH 7.5, 150 mM NaCl, 0.2% TritonX-100, 10% glycerol; mouse anti-V5 on Protein G Dynabeads overnight at 4°C; washes with 0.5% TritonX-100; blot with anti-FLAG
[2] = target: T1, V5-tagged Ten-m-ΔECD (I256-A2731 deleted) (Drosophila melanogaster) (UniProt O61307); experiment: as above
T1 sequence: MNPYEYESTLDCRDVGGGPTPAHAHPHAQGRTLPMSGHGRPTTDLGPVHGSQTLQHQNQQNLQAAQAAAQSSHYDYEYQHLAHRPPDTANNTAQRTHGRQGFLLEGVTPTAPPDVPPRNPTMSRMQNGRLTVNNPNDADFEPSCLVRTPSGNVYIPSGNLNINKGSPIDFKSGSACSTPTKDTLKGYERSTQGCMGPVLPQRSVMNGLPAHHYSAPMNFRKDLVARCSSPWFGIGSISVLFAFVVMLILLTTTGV

The chains behind the UniProt entries cited, without tags or fusion partners.
UniProt Q9W1B0: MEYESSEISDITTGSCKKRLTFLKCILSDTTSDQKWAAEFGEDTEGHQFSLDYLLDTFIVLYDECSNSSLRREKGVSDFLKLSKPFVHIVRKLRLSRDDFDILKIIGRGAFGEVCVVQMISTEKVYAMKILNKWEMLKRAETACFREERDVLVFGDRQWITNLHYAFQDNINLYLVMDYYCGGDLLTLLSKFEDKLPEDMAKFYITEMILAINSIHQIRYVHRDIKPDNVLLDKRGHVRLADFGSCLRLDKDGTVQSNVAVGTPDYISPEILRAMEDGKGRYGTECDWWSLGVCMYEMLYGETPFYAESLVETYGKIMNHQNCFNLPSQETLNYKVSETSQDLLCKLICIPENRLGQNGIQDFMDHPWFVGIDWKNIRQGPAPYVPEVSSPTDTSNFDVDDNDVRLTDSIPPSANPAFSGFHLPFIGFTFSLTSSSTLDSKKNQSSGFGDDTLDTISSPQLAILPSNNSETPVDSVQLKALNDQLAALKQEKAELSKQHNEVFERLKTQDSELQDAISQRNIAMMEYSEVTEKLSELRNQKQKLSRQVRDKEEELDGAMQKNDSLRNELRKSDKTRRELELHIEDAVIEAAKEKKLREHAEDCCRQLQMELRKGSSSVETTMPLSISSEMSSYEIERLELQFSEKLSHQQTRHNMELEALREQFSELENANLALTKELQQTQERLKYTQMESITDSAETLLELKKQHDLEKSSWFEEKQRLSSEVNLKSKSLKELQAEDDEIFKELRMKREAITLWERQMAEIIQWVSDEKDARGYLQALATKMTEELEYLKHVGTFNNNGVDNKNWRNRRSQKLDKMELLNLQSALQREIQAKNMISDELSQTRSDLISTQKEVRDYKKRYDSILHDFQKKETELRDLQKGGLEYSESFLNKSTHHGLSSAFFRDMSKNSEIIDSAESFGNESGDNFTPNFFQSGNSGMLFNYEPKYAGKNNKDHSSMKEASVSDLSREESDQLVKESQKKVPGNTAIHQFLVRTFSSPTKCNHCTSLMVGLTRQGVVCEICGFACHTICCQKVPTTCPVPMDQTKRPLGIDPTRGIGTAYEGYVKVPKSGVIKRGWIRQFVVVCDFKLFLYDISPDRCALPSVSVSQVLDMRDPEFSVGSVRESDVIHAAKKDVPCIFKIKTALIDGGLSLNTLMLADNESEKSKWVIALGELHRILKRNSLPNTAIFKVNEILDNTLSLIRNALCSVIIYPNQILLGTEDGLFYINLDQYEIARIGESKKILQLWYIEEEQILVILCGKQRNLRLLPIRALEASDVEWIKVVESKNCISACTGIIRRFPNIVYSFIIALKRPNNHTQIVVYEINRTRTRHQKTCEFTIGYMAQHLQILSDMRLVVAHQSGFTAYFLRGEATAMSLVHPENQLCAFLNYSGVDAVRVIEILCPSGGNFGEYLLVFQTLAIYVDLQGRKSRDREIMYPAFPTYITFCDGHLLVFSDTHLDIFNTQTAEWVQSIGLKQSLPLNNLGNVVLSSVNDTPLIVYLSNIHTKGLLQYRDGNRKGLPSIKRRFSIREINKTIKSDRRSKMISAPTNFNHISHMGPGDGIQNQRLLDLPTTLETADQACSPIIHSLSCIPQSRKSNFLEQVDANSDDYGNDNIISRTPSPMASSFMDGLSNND
UniProt Q9V9S7: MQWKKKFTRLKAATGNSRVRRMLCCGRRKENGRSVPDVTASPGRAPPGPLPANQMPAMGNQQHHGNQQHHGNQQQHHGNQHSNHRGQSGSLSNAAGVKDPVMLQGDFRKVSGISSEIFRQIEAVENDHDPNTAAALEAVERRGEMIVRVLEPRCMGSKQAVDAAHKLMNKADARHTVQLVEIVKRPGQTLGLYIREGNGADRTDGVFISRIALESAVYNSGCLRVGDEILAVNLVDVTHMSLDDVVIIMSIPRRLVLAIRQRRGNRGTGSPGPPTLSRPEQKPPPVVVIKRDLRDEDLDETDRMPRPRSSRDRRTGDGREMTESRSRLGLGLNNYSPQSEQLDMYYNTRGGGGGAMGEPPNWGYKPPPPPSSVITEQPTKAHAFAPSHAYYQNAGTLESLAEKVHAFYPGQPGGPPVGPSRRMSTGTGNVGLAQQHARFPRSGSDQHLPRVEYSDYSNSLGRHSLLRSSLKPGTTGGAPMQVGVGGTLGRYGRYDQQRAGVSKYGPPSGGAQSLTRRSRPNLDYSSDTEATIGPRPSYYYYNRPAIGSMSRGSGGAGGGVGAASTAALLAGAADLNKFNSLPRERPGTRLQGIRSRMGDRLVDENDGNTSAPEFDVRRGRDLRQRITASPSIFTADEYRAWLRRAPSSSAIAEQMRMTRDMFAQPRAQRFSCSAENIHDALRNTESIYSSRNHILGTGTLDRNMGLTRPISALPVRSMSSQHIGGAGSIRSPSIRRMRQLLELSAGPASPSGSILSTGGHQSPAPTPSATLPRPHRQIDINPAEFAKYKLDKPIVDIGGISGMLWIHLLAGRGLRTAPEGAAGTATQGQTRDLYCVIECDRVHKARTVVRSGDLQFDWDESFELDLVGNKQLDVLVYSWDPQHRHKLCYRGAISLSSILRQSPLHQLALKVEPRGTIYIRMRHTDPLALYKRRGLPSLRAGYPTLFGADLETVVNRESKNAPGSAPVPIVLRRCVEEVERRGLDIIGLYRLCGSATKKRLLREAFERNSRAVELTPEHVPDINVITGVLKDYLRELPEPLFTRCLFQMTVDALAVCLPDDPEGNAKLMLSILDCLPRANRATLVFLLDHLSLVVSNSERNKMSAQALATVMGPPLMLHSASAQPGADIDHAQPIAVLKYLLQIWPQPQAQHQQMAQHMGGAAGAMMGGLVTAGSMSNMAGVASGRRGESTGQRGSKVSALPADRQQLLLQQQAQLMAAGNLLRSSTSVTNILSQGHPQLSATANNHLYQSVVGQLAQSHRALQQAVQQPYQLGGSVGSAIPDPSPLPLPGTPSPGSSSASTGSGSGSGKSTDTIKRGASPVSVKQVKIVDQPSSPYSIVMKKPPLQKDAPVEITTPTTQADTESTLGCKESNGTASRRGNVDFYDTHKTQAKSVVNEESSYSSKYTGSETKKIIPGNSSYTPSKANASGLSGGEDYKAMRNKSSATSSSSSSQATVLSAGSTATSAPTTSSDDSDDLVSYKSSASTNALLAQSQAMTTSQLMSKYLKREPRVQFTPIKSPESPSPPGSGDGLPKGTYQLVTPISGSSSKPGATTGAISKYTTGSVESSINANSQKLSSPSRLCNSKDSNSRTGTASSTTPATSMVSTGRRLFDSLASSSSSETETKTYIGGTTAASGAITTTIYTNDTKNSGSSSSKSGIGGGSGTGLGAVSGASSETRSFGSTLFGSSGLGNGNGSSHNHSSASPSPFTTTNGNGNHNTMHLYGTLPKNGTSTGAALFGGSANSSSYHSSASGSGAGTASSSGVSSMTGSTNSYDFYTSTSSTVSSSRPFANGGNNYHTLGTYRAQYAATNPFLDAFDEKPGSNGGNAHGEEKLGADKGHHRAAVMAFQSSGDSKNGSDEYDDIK

Substance	binding [1]	binding [2]
FLAG-tagged Genghis Khan (Gek) (from UniProt Q9W1B0 1-1637)	binds	binds
FLAG-tagged full-length Syd1 (RhoGAP100F) (from UniProt Q9V9S7 1-1866)	binds	binds

From PMC11833509
